We go through 1 substance from PMC6408813.

By UniProt entry, the sequences of proteins in these tests, tags left out.
UniProt P19532: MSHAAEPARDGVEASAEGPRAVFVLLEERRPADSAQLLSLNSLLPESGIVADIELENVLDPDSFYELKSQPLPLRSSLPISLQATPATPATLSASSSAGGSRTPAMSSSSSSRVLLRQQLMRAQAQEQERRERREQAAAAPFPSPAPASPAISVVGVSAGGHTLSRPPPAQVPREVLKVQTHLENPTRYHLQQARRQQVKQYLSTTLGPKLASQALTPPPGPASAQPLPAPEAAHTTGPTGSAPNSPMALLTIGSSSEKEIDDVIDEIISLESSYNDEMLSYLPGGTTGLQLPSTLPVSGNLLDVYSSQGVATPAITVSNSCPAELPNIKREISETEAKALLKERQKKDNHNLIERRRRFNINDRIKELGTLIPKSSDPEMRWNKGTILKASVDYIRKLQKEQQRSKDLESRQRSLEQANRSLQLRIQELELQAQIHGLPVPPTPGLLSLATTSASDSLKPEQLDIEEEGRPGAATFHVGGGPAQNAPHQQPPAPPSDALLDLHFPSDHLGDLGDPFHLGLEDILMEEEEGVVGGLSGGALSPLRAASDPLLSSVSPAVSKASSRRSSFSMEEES

These are yes or no findings as the source states them, for the method shown. Binding seen in cells or lysates may run through a third protein. Some results given as binding are weak or reduced against the parent protein; the word gives no strength.

This test has as its target T1, 14-3-3γ (human (endogenous in HK-2, UOK109 and UOK120)) (UniProt P61981).
T1 sequence: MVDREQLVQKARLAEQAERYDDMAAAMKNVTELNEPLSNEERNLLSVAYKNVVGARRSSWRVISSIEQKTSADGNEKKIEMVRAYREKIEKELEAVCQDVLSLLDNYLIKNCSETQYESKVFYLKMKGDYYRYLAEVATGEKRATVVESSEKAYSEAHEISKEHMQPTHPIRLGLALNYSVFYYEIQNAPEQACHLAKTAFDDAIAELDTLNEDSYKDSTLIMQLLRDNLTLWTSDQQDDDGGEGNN
The test is described as follows: co-IP; endogenous proteins of HK-2, UOK109 and UOK120 cells; an irrelevant IgG as negative control; which antibody precipitated is not told.

As for “wild-type TFE3 (Transcription Factor Binding to IGHM Enhancer 3) (from UniProt P19532 1-575)”, the binding result was “binds”.
